The list shows a part of the results. Residues, ends and D or L forms follow the SMILES beside them. *: point of attachment. Cbz = O=C(OCc1ccccc1)*
How the values were obtained:
Assay in all cases: log2 fold change, soluble protein after heating vs DMSO (PISA); higher = thermal stabilisation; K562 cells, 10 uM, 30 min; active = over 0.2 and 3.5 SD of the protein, either way, in both replicates (recomputed)
ibrutinib = compound: C=CC(=O)N1CCC[C@@H](n2nc(-c3ccc(Oc4ccccc4)cc3)c3c(N)ncnc32)C1 [ibrutinib]
In short: (§1)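 For each measurement, 10 μM compound was applied for 30 min to K562 cells at 2×10^6 cells/mL. Aliquots were heated for 3 min across 48°C-58°C, pooled, and extracted in PBS with 0.5% NP-40 at 4°C; the supernatant after 21,000xg for 90 min was soluble protein. This was quantified by TMTpro 16plex LC-MS/MS with channel sums equalised, and thermal stability was reported relative to control samples from duplicates, on a log2 fold-change scale.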

Chains of the proteins cited; added tags and fusions are not shown. Lines headed by an entry give the natural chain unless they say otherwise; changes in a name come on top.
UniProt Q86V21: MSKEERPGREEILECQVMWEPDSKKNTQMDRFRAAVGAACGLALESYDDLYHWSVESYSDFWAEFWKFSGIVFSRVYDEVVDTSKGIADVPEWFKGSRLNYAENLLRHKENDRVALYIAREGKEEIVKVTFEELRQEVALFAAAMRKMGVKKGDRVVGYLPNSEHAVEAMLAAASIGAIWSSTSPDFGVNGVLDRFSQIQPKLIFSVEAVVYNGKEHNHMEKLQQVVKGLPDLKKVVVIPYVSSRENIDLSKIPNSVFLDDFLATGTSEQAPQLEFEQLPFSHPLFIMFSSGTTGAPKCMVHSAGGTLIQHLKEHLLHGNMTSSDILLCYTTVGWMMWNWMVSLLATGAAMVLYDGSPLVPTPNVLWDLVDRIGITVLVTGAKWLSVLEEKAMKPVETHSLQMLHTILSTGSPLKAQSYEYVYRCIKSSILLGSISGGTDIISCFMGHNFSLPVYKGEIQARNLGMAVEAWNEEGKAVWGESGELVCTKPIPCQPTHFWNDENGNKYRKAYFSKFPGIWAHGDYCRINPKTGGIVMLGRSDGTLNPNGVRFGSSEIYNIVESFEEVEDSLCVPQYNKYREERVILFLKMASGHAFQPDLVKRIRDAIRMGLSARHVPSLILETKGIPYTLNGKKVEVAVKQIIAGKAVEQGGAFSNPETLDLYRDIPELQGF
UniProt Q04771: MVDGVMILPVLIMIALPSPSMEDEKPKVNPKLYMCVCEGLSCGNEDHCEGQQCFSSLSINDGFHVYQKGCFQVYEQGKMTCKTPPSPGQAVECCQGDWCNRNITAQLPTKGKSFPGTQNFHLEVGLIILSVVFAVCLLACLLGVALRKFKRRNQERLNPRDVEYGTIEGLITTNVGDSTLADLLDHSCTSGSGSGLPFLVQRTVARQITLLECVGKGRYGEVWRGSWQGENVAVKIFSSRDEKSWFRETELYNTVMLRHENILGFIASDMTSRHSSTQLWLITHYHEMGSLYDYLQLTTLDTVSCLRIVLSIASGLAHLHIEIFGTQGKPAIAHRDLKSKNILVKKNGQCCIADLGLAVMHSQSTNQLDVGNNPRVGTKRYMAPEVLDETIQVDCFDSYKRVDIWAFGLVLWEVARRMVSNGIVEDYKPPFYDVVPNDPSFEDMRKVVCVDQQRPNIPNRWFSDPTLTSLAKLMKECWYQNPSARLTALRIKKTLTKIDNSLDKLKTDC
UniProt O94911: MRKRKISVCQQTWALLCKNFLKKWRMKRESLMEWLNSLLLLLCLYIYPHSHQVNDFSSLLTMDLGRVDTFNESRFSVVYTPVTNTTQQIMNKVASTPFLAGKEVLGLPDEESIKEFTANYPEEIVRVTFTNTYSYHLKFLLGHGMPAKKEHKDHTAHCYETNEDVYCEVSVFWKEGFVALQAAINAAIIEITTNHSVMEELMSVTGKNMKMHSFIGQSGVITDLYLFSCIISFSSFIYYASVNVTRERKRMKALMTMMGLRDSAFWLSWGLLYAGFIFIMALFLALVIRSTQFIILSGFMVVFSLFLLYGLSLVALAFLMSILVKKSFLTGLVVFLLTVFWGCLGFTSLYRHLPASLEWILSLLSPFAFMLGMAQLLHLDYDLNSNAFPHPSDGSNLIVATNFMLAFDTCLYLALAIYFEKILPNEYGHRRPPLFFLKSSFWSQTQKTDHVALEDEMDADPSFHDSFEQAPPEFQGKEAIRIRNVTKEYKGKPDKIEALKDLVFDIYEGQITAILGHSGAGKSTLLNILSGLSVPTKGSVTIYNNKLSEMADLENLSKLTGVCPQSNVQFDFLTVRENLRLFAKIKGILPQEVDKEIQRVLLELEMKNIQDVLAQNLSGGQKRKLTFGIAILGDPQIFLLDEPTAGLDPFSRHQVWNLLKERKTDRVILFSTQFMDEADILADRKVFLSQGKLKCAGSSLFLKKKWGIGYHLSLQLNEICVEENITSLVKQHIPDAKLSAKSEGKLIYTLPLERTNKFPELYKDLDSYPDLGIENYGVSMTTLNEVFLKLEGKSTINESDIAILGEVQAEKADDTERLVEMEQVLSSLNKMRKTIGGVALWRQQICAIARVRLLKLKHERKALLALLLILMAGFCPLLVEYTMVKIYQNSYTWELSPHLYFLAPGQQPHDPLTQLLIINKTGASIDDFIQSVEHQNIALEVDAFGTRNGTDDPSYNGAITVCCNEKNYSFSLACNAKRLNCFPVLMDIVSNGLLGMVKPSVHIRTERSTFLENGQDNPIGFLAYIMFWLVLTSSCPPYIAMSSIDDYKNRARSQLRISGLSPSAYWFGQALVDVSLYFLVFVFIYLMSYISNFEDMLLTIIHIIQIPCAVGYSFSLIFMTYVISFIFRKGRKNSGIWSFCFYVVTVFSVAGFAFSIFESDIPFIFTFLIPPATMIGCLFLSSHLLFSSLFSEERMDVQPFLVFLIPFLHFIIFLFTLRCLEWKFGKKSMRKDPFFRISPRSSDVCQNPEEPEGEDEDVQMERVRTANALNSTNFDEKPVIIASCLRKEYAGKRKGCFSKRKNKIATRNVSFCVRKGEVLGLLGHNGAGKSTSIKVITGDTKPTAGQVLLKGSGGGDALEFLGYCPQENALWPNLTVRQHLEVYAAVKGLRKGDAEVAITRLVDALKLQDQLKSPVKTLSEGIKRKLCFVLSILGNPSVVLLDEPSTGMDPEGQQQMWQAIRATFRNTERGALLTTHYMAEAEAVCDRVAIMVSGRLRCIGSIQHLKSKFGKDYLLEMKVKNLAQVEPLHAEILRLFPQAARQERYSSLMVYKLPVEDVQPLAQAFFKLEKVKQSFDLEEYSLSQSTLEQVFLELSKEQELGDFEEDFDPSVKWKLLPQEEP
UniProt Q96QU6: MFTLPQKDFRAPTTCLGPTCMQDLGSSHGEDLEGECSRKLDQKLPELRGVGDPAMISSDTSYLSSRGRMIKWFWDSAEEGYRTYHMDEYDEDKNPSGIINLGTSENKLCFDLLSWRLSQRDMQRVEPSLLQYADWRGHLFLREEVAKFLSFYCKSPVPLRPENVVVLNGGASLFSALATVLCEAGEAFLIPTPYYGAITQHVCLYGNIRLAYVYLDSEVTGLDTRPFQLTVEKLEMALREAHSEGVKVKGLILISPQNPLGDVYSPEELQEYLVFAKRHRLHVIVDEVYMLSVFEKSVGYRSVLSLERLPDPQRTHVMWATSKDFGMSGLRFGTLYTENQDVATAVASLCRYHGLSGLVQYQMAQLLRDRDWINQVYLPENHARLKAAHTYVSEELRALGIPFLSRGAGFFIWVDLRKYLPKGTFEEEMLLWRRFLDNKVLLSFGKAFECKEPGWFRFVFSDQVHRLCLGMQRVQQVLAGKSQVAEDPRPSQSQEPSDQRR
UniProt P28330: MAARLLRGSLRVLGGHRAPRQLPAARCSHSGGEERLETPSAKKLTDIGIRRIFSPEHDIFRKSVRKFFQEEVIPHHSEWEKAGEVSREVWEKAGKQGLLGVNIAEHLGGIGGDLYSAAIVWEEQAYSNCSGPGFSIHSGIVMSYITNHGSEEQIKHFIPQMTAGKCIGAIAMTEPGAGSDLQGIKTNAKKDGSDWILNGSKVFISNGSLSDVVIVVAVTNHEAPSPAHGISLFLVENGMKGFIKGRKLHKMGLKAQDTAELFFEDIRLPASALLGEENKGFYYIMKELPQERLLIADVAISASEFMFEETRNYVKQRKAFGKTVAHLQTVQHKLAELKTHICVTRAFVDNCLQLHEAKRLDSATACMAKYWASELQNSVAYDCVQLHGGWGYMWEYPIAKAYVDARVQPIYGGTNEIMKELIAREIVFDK
UniProt Q562R1, whole entry, looked up: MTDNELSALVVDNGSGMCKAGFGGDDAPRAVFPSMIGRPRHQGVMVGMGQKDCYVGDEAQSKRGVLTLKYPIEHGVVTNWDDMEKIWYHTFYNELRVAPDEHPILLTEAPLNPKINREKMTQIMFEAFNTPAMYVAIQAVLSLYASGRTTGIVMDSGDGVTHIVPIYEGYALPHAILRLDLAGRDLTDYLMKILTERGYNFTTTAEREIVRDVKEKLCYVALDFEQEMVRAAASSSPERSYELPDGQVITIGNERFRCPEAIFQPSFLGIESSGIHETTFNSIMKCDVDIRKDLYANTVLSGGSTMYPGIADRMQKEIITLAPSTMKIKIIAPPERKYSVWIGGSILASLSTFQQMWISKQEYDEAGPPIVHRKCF
UniProt Q9UKU0: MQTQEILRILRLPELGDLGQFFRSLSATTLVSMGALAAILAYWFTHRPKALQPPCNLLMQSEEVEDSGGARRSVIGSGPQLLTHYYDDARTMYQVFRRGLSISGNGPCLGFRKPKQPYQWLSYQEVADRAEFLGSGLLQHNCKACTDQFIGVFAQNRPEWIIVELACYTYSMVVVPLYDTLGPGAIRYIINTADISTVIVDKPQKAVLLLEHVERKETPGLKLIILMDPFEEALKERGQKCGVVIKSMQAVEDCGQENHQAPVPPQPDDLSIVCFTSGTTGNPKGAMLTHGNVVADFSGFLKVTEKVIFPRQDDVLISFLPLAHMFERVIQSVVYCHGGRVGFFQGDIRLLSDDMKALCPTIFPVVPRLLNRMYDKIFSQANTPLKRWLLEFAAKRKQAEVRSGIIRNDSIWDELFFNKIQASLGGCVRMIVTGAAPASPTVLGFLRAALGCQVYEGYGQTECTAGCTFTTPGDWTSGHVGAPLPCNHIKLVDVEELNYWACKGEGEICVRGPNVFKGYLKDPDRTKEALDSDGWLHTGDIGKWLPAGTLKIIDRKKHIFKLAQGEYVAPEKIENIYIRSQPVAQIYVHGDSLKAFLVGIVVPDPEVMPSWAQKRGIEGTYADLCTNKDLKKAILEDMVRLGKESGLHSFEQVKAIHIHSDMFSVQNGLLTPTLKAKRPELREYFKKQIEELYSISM
UniProt Q5T3U5: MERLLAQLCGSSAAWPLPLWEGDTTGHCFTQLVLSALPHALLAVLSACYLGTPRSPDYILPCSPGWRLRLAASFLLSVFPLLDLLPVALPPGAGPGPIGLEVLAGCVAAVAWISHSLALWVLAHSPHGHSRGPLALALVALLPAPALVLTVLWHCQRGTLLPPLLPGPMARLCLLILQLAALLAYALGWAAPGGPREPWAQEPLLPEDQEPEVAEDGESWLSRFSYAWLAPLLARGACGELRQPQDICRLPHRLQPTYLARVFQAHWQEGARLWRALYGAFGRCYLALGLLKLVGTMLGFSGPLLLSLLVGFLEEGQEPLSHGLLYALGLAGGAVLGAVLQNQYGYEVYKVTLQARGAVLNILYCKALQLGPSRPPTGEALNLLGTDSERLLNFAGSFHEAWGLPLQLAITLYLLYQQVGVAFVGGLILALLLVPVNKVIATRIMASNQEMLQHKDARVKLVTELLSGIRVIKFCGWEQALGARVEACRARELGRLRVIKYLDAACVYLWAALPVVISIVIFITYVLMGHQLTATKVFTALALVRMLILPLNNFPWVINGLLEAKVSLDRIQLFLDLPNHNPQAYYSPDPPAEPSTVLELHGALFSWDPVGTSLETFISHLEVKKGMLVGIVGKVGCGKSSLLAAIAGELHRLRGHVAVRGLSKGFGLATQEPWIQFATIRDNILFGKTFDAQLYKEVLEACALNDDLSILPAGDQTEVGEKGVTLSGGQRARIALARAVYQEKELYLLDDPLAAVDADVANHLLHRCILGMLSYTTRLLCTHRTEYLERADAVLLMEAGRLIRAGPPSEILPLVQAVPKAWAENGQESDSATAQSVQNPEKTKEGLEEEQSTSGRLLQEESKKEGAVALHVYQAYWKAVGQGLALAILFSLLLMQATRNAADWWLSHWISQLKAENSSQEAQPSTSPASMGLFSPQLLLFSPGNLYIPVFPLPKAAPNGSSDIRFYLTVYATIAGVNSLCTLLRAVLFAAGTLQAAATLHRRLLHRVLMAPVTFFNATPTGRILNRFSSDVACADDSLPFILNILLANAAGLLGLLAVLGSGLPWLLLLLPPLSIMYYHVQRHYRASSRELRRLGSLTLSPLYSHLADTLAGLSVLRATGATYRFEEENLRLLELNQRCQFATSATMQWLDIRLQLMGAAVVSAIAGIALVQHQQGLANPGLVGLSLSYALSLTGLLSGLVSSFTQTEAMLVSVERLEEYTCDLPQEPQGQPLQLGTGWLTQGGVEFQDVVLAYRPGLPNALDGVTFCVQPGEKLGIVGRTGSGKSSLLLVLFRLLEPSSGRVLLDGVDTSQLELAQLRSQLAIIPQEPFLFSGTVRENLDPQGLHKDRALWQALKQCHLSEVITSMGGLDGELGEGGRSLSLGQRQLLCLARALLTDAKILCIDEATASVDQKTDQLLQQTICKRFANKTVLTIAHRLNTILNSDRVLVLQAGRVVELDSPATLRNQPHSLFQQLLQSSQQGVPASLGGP
UniProt Q9BUJ0: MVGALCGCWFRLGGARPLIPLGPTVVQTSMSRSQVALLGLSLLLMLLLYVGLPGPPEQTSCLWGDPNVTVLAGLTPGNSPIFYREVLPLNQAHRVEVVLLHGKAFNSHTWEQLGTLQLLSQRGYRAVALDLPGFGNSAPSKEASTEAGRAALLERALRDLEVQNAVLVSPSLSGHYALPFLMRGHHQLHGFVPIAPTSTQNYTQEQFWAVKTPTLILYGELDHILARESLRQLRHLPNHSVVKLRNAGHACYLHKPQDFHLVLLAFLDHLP

[1] = compound: CC(=O)c1cnc2ccc(-c3cc(Cl)c(O)c(Cl)c3)nc2c1N[C@H]1CC[C@H](CN(C)C)CC1
In short: as §1

ralimetinib = compound: CC(C)(C)Cn1c(N)nc2ccc(-c3[nH]c(C(C)(C)C)nc3-c3ccc(F)cc3)nc21 [ralimetinib]
In short: as §1

[2] = compound: CC(C)(O)CC(=O)NCCn1ccc2ncnc(Nc3ccc(Oc4cccc(C(F)(F)F)c4)c(Cl)c3)c21
In short: as §1

[3] = compound: CC(C)C1=C2N=C(C=C(N2N=C1)NCC3=CC=CC=C3)NCCCCCCN
In short: as §1

[4] = compound: CC(C)C[C@@H](C=O)NC(=O)[C@H](CC(C)C)NC(=O)[C@H](CC(C)C)NC(=O)OCc1ccccc1
In short: as §1

[5] = compound: CC1=C(C2=C(C=C1)C(=O)C3=CC=CC=C3N2CCCN)C
In short: as §1

[6] = compound: CC1=C(C=C(C=C1)NC(=O)C2=CC(=CC=C2)C(C)(C)C#N)NC3=CC4=C(C=C3)N=CN(C4=O)C
In short: as §1

[7] = compound: CC1=C(C=C(C=C1)NC(=O)C2=CC(=CC=C2)N(C)C)NC(=O)C3=CC=C(C=C3)O
In short: as §1

[8] = compound: CC1=CC=C(C=C1)SC2=C3C=C(SC3=CN=C2)C(=O)N
In short: as §1

Nexturastat A = compound: CCCCN(Cc1ccc(C(=O)NO)cc1)C(=O)Nc1ccccc1 [Nexturastat A]
In short: as §1

vemurafenib = compound: CCCS(=O)(=O)Nc1ccc(F)c(C(=O)c2c[nH]c3ncc(-c4ccc(Cl)cc4)cc23)c1F [vemurafenib]
In short: as §1

[9] = compound: CCCS(=O)(=O)Nc1ccc(F)c(C(=O)c2c[nH]c3ncc(Cl)cc23)c1F
In short: as §1

[10] = compound: CCCc1cc(C)[nH]c(=O)c1CNC(=O)c1cc(-c2ccnc(N3CCN(C)CC3)c2)cc2c1cnn2C(C)C
In short: as §1

givinostat = compound: CCN(CC)Cc1ccc2cc(COC(=O)Nc3ccc(C(=O)NO)cc3)ccc2c1 [givinostat]
In short: as §1

barasertib = compound: CCN(CCCOc1ccc2c(Nc3cc(CC(=O)Nc4cccc(F)c4)[nH]n3)ncnc2c1)CCOP(=O)(O)O [barasertib]
In short: as §1

[11] = compound: CC1=C(C(CC(=O)N1)C2=CC=C(C=C2)C(F)(F)F)C(=O)NC3=C(C=C4C(=C3)C=NN4)F
In short: as §1

IRAK-1-4 Inhibitor I = compound: C1COCCN1CCN2C3=CC=CC=C3N=C2NC(=O)C4=CC(=CC=C4)[N+](=O)[O-] [IRAK-1-4 Inhibitor I]
In short: as §1

pinometostat = compound: CC(C)N(C[C@H]1O[C@@H](n2cnc3c(N)ncnc32)[C@H](O)[C@@H]1O)[C@H]1C[C@@H](CCc2nc3cc(C(C)(C)C)ccc3[nH]2)C1 [pinometostat]
In short: as §1

[12] = compound: CC1=NC(=CC=C1)C2=C(N=C(N2)C(C)(C)C)C3=CC4=NC=CN=C4C=C3
In short: as §1

Measured: log2 fold change

ABL1 isoform 2 (UniProt P00519)
inactive: ibrutinib 0.089 | [1] -0.168 | ralimetinib 0.103 | [2] 0.048 | [3] -0.149 | [4] 0.039 | [5] 0.004 | [6] 0.073 | [7] 0.007 | [8] -0.007 | Nexturastat A 0.181 | vemurafenib 0.027 | [9] 0.03 | [10] -0.002 | givinostat 0.139 | barasertib 0.025

ACBD7 (UniProt Q8N6N7)
inactive: [8] 0.071 | [9] -0.246

ABHD6 (UniProt Q9BV23)
inactive: ralimetinib 0.23 | [4] -0.038 | [11] -0.342 | [5] 0.055 | [6] 0.602 | [7] 0.059 | [8] -0.077 | [9] 0

ABHD3 (UniProt Q8WU67)
inactive: [3] -0.078 | givinostat 0.108

AACS (UniProt Q86V21)
inactive: ralimetinib 0.136 | [2] -0.176 | [4] 0.229 | [7] 0.05 | Nexturastat A 0.329

ACAA2 (UniProt K7ER88)
inactive: ibrutinib -0.115 | [1] -0.358 | [2] -0.049 | [11] 0.038 | [6] -0.331 | [8] -0.162 | Nexturastat A -0.255 | vemurafenib -0.054 | [9] 0.094 | [10] 0.085 | barasertib 0.08

ACVR1 (UniProt Q04771)
inactive: [2] -0.158 | [3] 0.06 | [5] 0.127 | [6] -0.194 | [8] 0.011 | Nexturastat A 0.037 | vemurafenib 0.015 | [9] 0.017 | [10] -0.149 | givinostat 0.031
active: [1] 0.873

ACAD10 isoform 5 (UniProt Q6JQN1)
inactive: [1] -0.078 | ralimetinib 0.06 | [3] -0.092 | [4] 0.186 | [7] 0.126 | vemurafenib 0.049 | givinostat 0.028

ACTB, A0A2R8YGF8
inactive: [10] -0.105

ABCA8 isoform 3 (UniProt O94911)
inactive: ibrutinib 0.359 | [3] 0.032 | [5] -0.059 | givinostat -0.068 | barasertib -0.081

A2ML1 (UniProt A8K2U0)
inactive: [1] -0.238 | ralimetinib -0.068 | [3] 0.308 | [4] -0.081 | [11] -0.3 | [5] 0.706 | [6] -0.83 | [7] 0.111 | [8] -0.055 | vemurafenib -0.097 | [9] -0.125 | [10] -0.032 | givinostat 0.007

ACTC1 (UniProt P68032)
inactive: [3] -0.034 | givinostat -0.037

ACSF2 isoform 2 (UniProt Q96CM8)
inactive: ralimetinib -0.314 | [3] 0.024 | [4] 0.103 | [7] -0.043 | givinostat -0.097

ABCF1 (UniProt Q5STZ8)
inactive: ibrutinib -0.145 | [1] 0.046 | [11] -0.072 | [5] 0.111 | vemurafenib -0.079 | barasertib -0.087

ACLY isoform 2 (UniProt P53396)
inactive: ibrutinib 0.087 | [1] 0.177 | ralimetinib -0.13 | [2] -0.033 | [3] 0.055 | [4] 0.012 | [11] 0.031 | [5] -0.204 | [6] 0.094 | [7] -0.095 | [8] 0.015 | Nexturastat A 0.055 | vemurafenib 0.026 | [9] 0 | [10] -0.278 | givinostat 0.019 | barasertib -0.099

ADAM8 (UniProt P78325)
inactive: IRAK-1-4 Inhibitor I 0.021 | [2] -0.046 | [3] -0.103 | pinometostat 0.079 | [12] -0.15 | Nexturastat A -0.108 | givinostat -0.135

ACTB, A0A2R8YEA7
inactive: ibrutinib 0.054 | [1] -0.024 | ralimetinib -0.154 | [3] 0.162 | [4] -0.027 | [11] -0.115 | [5] -0.103 | [6] -0.025 | [7] 0.091 | vemurafenib 0.038 | [10] 0.04 | givinostat -0.014 | barasertib -0.047

ACTG1 (UniProt I3L4N8)
inactive: ralimetinib -0.161 | [3] 0.11 | [4] -0.198 | [11] 0.146 | [7] 0.03 | [10] -0.004 | givinostat 0.154

ACTN1 (UniProt H9KV75)
inactive: ibrutinib -0.023 | [1] -0.04 | [2] -0.155 | [3] 0.141 | [11] 0.183 | [5] 0.092 | [6] -0.117 | [8] 0.124 | Nexturastat A 0.201 | vemurafenib -0.055 | [9] -0.084 | [10] 0.065 | givinostat 0.122 | barasertib 0.028

ABHD4 (UniProt Q8TB40)
inactive: ibrutinib 0.524 | [2] 0.265 | [3] -0.225 | Nexturastat A 0.121 | givinostat 0.005 | barasertib -0.465

ADAMTS13 (UniProt Q76LX8)
inactive: [1] 0.139 | [2] 0.12 | [6] 0.099 | [8] 0.019 | Nexturastat A -0.064 | [9] -0.112

ACOX1 isoform 3 (UniProt Q15067)
inactive: IRAK-1-4 Inhibitor I -0.073 | pinometostat -0.054 | [5] 0.343 | [12] 0.035 | vemurafenib 0.085

ABCB5 (UniProt Q2M3G0)
inactive: ibrutinib 0.082 | [3] 0.026 | [11] -0.137 | givinostat -0.007 | barasertib -0.115

ACTR3B (UniProt Q9P1U1)
inactive: IRAK-1-4 Inhibitor I -0.04 | ralimetinib -0.071 | [3] 0.181 | [4] 0.056 | pinometostat -0.081 | [5] -0.016 | [7] -0.046 | [8] -0.05 | [12] 0.198 | vemurafenib 0.019 | [9] 0.014 | givinostat 0.147

ACTB (UniProt E7EVS6)
inactive: [3] -0.102 | givinostat -0.169

Taken from the results shown (eight entries):
ACLY isoform 2 (UniProt P53396)
inactive: ibrutinib 0.087 | [1] 0.177 | ralimetinib -0.13 | [2] -0.033 | [3] 0.055 | [4] 0.012 | [11] 0.031 | [5] -0.204 | [6] 0.094 | [7] -0.095 | [8] 0.015 | Nexturastat A 0.055 | vemurafenib 0.026 | [9] 0 | [10] -0.278 | givinostat 0.019 | barasertib -0.099

ADAM8 (UniProt P78325)
inactive: IRAK-1-4 Inhibitor I 0.021 | [2] -0.046 | [3] -0.103 | pinometostat 0.079 | [12] -0.15 | Nexturastat A -0.108 | givinostat -0.135

ACTB, A0A2R8YEA7
inactive: ibrutinib 0.054 | [1] -0.024 | ralimetinib -0.154 | [3] 0.162 | [4] -0.027 | [11] -0.115 | [5] -0.103 | [6] -0.025 | [7] 0.091 | vemurafenib 0.038 | [10] 0.04 | givinostat -0.014 | barasertib -0.047

ACTG1 (UniProt I3L4N8)
inactive: ralimetinib -0.161 | [3] 0.11 | [4] -0.198 | [11] 0.146 | [7] 0.03 | [10] -0.004 | givinostat 0.154

ACTN1 (UniProt H9KV75)
inactive: ibrutinib -0.023 | [1] -0.04 | [2] -0.155 | [3] 0.141 | [11] 0.183 | [5] 0.092 | [6] -0.117 | [8] 0.124 | Nexturastat A 0.201 | vemurafenib -0.055 | [9] -0.084 | [10] 0.065 | givinostat 0.122 | barasertib 0.028

ABHD4 (UniProt Q8TB40)
inactive: ibrutinib 0.524 | [2] 0.265 | [3] -0.225 | Nexturastat A 0.121 | givinostat 0.005 | barasertib -0.465

ADAMTS13 (UniProt Q76LX8)
inactive: [1] 0.139 | [2] 0.12 | [6] 0.099 | [8] 0.019 | Nexturastat A -0.064 | [9] -0.112

ACOX1 isoform 3 (UniProt Q15067)
inactive: IRAK-1-4 Inhibitor I -0.073 | pinometostat -0.054 | [5] 0.343 | [12] 0.035 | vemurafenib 0.085

More entries:

ACCS (UniProt Q96QU6)
inactive: ibrutinib 0.048 | ralimetinib -0.076 | [2] -0.034 | [3] 0.089 | [4] 0 | [11] -0.03 | [5] 0.007 | [7] 0.156 | Nexturastat A 0.278 | [10] -0.303 | givinostat 0.073 | barasertib 0.356

ACADL (UniProt P28330)
inactive: [6] 0.151

ABCB4 (UniProt P21439)
inactive: [1] -0.324 | ralimetinib 0.025 | [3] -0.036 | [4] 0.021 | [5] 0.07 | [7] 0.011 | [8] 0.001 | vemurafenib -0.014 | [9] 0.025 | [10] -0.104 | givinostat 0.106

ACTBL2 (UniProt Q562R1)
inactive: ibrutinib 0 | [1] -0.156 | ralimetinib 0.351 | [2] 0.132 | [3] 0.372 | [4] 0.195 | [6] 0.238 | [7] 0.243 | [8] -0.385 | Nexturastat A -0.049 | vemurafenib 0.139 | [9] -0.41 | [10] 0.073 | givinostat -0.342 | barasertib 0.161

ABCA7 (UniProt Q8IZY2)
inactive: ibrutinib 0.23 | [1] 0 | [2] -0.377 | [3] -0.346 | [11] 0.067 | [6] -0.029 | Nexturastat A -0.227 | givinostat 0.123 | barasertib -0.187

ACOT7 (UniProt K7EKP8)
inactive: [1] -0.148

ACSL6 isoform 1 (UniProt Q9UKU0)
inactive: ibrutinib 0.043 | ralimetinib -0.001 | [2] 0.222 | [3] -0.21 | [4] 0.027 | [5] 0.012 | [6] 0.075 | [7] -0.014 | Nexturastat A 0.082 | vemurafenib 0.17 | [10] 0.035 | givinostat 0.04 | barasertib 0.133

ABCC10 (UniProt Q5T3U5)
inactive: ibrutinib -0.083 | [1] 0.107 | ralimetinib -0.107 | [2] 0.028 | [3] -0.253 | [4] 0.183 | [11] -0.12 | [5] 0.15 | [6] -0.026 | [7] 0.083 | [8] 0.034 | Nexturastat A 0.051 | vemurafenib 0.139 | [9] 0.011 | givinostat 0.144 | barasertib -0.004

ABHD14A (UniProt Q9BUJ0)
inactive: [6] -0.153

ABCE1 (UniProt H0Y990)
inactive: ibrutinib -0.087 | [1] 0.111 | [2] -0.04 | [3] 0.151 | [11] 0.066 | [5] 0.042 | [6] 0.084 | [8] 0.088 | Nexturastat A -0.15 | vemurafenib 0.06 | [9] -0.024 | [10] 0.034 | givinostat -0.063 | barasertib -0.034

— the supplement of paper PMC10849652
